Results reported in paper PMC3794858, “NECAP 1 Regulates AP-2 Interactions to Control Vesicle Size, Number, and Cargo During Clathrin-Mediated Endocytosis” (PLoS Biology, 2013).
Where a chain is given by its changes, count along the chain named. Results are given in words; binding and its absence hold for the method and conditions named. For some of these results: Binding seen in cells or lysates may run through a third protein. Some binding calls cover weakened binding; strength is not graded here. For some of these results: Sequences can lack the tags named with a protein.

Chains of the proteins cited; added tags and fusions are not shown. Residues count along the entry.
UniProt P63010, residues 1-668: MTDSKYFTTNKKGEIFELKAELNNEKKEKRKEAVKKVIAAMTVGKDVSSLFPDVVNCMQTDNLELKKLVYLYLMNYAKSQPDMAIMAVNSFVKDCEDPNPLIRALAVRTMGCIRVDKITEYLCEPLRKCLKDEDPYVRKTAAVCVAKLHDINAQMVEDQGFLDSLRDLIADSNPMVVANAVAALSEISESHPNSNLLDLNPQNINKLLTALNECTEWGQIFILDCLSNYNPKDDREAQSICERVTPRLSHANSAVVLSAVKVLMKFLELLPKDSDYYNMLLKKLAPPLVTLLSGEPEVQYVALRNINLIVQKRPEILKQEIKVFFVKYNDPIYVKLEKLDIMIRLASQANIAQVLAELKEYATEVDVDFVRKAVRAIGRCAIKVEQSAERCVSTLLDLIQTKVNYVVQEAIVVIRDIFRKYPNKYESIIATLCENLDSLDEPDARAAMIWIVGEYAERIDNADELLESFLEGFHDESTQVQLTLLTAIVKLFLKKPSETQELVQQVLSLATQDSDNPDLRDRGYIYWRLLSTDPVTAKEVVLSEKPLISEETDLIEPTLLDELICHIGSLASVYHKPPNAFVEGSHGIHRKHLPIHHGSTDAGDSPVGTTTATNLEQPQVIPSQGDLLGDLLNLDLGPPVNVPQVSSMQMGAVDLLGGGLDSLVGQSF
UniProt Q62910: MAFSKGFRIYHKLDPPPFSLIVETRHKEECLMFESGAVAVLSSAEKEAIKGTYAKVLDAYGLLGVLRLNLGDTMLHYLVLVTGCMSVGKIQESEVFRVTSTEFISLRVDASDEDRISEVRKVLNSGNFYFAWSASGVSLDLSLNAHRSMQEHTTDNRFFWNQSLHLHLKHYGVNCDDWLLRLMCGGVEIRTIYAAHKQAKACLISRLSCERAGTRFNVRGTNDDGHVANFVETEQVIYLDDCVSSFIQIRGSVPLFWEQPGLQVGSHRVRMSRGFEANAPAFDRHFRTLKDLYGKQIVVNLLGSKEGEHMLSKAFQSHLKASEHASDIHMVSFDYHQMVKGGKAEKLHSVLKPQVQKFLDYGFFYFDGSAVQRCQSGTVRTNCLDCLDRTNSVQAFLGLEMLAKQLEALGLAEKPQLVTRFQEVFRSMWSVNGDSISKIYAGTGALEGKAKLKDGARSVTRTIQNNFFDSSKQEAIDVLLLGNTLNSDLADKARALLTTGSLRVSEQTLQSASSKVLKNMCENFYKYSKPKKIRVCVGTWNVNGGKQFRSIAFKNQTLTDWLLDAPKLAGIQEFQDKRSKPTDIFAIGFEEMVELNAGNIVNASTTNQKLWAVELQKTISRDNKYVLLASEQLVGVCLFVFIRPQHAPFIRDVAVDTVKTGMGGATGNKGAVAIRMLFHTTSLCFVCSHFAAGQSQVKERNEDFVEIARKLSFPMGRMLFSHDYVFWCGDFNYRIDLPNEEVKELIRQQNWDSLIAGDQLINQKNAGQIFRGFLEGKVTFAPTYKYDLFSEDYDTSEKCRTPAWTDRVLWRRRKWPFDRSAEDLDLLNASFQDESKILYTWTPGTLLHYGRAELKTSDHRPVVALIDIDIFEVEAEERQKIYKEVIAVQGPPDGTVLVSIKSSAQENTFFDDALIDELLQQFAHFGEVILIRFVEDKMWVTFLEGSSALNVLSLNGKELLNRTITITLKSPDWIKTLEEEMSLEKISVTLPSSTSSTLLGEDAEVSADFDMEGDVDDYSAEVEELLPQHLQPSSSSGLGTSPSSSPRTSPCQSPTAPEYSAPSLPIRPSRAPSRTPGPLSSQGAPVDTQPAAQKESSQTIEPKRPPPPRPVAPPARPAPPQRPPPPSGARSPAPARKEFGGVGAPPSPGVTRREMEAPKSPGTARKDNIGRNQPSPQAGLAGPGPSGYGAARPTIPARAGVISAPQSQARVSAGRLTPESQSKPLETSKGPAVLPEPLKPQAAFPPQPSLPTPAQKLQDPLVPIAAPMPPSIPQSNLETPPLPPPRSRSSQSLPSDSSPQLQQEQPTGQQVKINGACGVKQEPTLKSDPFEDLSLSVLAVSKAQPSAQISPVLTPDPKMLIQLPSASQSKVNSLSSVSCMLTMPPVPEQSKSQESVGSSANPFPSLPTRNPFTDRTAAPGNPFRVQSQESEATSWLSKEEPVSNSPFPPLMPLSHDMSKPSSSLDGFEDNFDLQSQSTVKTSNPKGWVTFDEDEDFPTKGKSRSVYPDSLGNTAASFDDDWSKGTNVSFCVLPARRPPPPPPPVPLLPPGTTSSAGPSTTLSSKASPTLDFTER
UniProt P49951, residues 1-579: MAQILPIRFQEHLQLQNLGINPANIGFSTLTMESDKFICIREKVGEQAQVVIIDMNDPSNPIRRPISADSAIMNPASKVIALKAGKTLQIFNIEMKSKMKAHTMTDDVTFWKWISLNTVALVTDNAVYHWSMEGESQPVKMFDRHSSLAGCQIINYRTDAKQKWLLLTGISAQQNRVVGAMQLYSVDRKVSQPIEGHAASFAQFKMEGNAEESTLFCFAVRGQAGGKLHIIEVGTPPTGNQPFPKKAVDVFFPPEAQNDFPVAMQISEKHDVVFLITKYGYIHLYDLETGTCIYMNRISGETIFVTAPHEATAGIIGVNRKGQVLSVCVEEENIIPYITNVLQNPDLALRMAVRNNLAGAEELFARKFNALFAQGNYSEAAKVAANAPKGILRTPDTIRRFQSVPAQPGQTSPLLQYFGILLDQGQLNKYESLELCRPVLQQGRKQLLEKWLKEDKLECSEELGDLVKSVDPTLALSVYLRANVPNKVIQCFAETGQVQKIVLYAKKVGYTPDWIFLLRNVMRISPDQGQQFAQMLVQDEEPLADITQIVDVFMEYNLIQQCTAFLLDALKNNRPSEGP

Tests used:
[1] = molecular target: T1, GST–PHear (NECAP 1 PHear domain, aa 1–133, fused to GST) (mouse) (UniProt Q9CR95); experiment: pull-down; GST fusion proteins precoupled to glutathione-Sepharose, rat brain extract, 1 h at 4°C, 10 mM HEPES pH 7.4, 1% Triton X-100, 50 mM NaCl; Western blot; only the target purified
T1 sequence: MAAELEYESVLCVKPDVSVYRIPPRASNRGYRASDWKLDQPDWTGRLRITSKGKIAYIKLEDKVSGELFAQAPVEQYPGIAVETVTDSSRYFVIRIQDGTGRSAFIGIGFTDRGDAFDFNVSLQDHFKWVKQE

β2-linker peptide (Ac-…) = molecular target: T2, β2-linker peptide (Ac-…); experiment: NMR titration; competition: 15N-labeled PHear with unlabeled β2-linker peptide (1:4) titrated with unlabeled clathrin terminal domain (up to 1:4:2), 30°C; both purified
T2 sequence (peptide, N-terminal acetyl (Ac-)): SQGDLLGDLLNLDLPPVN

[2] = molecular target: T1, GST–PHear (NECAP 1 PHear domain, aa 1–133, fused to GST) (mouse); experiment: pull-down; GST fusion proteins precoupled to glutathione-Sepharose, rat brain extract, 1 h at 4°C, 10 mM HEPES pH 7.4, 1% Triton X-100, 50 mM NaCl; Western blot; only the target purified; remark: listed apart in the source
GST–PHear R95A (mouse) [3] = molecular target: T3, GST–PHear R95A (mouse) (UniProt Q9CR95); experiment: as above
T3 sequence: T1 sequence with R95A

[4] = molecular target: T1, GST–PHear (NECAP 1 PHear domain, aa 1–133, fused to GST) (mouse); experiment: pull-down; GST fusion proteins precoupled to glutathione-Sepharose, lysates of transfected HEK-293-T cells, 1 h at 4°C, 10 mM HEPES pH 7.4, 1% Triton X-100, 50 mM NaCl; Western blot; only the target purified
GST–PHear R95A (mouse) [5] = molecular target: T3, GST–PHear R95A (mouse); experiment: as above
[6] = molecular target: Flag-tagged β2-adaptin trunk+linker (aa 1–668) (UniProt P63010); experiment: far-Western, overlay or dot blot; Flag-tagged α- and β2-adaptin variants immunoprecipitated from HEK-293-T lysates, resolved by SDS-PAGE, overlaid with purified GST fusion proteins; both purified

synaptojanin 170 (endogenous, brain lysate) (from UniProt Q62910 1-1574)
binding [1]: binds

unlabeled clathrin terminal domain (aa 1–579) (from UniProt P49951 1-579) (domain or fragment)
binding (β2-linker peptide (Ac-…)): binds

B1: amphiphysin I (endogenous, brain lysate) (protein, UniProt O08838 1-683)
chain: MADIKTGIFAKNVQKRLNRAQEKVLQKLGKADETKDEQFEEYVQNFKRQEAEGTRLQRELRGYLAAIKGMQEASMKLTESLHEVYEPDWYGREDVKMVGEKCDVLWEDFHQKLVDGSLLTLDTYLGQFPDIKNRIAKRSRKLVDYDSARHHLEALQSSKRKDESRISKAEEEFQKAQKVFEEFNVDLQEELPSLWSRRVGFYVNTFKNVSSLEAKFHKEIAVLCHKLYEVMTKLGDQHADKAFSIQGAPSDSGPLRIAKTPSPPEEASPLPSPTASPNHTLAPASPAPVRPRSPSQTRKGPPVPPLPKVTPTKELQQENIINFFEDNFVPEINVTTPSQNEVLEVKKEETLLDLDFDPFKPDVTPAGSAAATHSPMSQTLPWDLWTTSTDLVQPASGGSFNDFTQPQDTSLFTMQTDQNMAETEQALPTEPQAEEPPTTAAAPTAGLDLGLEMEEPKEEAAIPPGTDAGETVGTEGSTGEEAEAEKAALPAGEGESPEGAKIDVESTELASSESPQAAELEAGAPQEKVIPSVVIEPASNHEGEEHQETTTGTETREATEDVAPQGPAGEKQELATEPTPLDSQAATPAPAGAVDASLSAGDAAQELPPGFLYKVETLHDFEAANSDELTLQRGDVVLVVPSDSEADQDAGWLVGVKESDWLQYRDLATYKGLFPENFTRHLE
binding [2]: binds
binding (GST–PHear R95A (mouse) [3]): binds

B2: amphiphysin II (endogenous, brain lysate) (protein, UniProt O08839 1-588)
chain: MAEMGSKGVTAGKIASNVQKKLTRAQEKVLQKLGKADETKDEQFEQCVQNFNKQLTEGTRLQKDLRTYLASVKAMHEASKKLSECLQEVYEPEWPGRDEANKIAENNDLLWMDYHQKLVDQALLTMDTYLGQFPDIKSRIAKRGRKLVDYDSARHHYESLQTAKKKDEAKIAKPVSLLEKAAPQWCQGKLQAHLVAQTNLLRNQAEEELIKAQKVFEEMNVDLQEELPSLWNSRVGFYVNTFQSIAGLEENFHKEMSKLNQNLNDVLVSLEKQHGSNTFTVKAQPSDSAPEKGNKSPSPPPDGSPAATPEIRVNHEPEPASGASPGATIPKSPSQLRKGPPVPPPPKHTPSKEMKQEQILSLFDDAFVPEISVTTPSQFEAPGPFSEQASLLDLDFEPLPPVASPVKAPTPSGQSIPWDLWEPTESQAGVLPSGEPSSAEGSFAVAWPSQTAEPGPAQPAEASEVVGGTQEPGETAASEATSSSLPAVVVETFSATVNGAVEGSTTTGRLDLPPGFMFKVQAQHDYTATDTDELQLKAGDVVLVIPFQNPEEQDEGWLMGVKESDWNQHKELEKCRGVFPENFTERVQ
binding [2]: binds
binding (GST–PHear R95A (mouse) [3]): binds

B3: mCherry-tagged FCHo1 (protein, UniProt Q8K285 1-873)
chain: MSYFGEHFWGDKNHGFEVLYHCVKQGPVATKELADFIRERANIEETYSKAMAKLSKLASNGTPMGTFAPLWEVFRVSSDKLALCHLELTRKLHDLLKDVLRYGEEQLKTHKKCKEEVLGTVDAVQMLSGVGQLLPKSRENYLSRCMDLERLRRENTSQKEMDKAETKSKKAADSLRRSVDKYNSARADFEIKMLDSALRFQAMEEAHLQHMKALLGSYAHSVEDTHVQIGQVHEEFKQNVENVTVDMLLRKFAESKGTGREKPGPLDFDAYSSAALQEAMKRLRGAKAFRLPGLSRREPRASVDFLESDSGVPPEVDDEGFTVRPDISQNNGAEPPRFSSSDSDFDDEEPRKFYVHIKPAPTRAVACSSEAAAAQLRATAGSLILPPGPGGTMKRHSSRDTSGKPQRPRSAPRTGSCAEKPLASEEPLSKSLFGPPLESAFDHDDFTGSSSLGFTSSPSPFSSSSPENVEDSGLDSPSHAAPGPSPESWVPRPGTPQSPPTCRAQHPEPRGLMPRAPSPGPWGPEGGADSLTPADPTREGLAATLRRPRSRKVSCPLTRSNGDLCRSLSPSPLGSSAPTIPPDRPSFSTQMGHGISRGPSPVVLGSQDALPVATAFTEYVHAYFRGHSPSCLARVTGELTMTFPAGIVRVFSGTPPPPVLSFRLVNTAPVEHFQPNADLIFSDPSQSDPETKDFWLNMAALTEALQHQAEQNPTASYYNLVLLRYQFSRPGPESVPLQMSAHWQCGPTLTRVSVEYSYRAGATAVSTPLTNVQILLPVGEPVTSVRLQPAATWNTEEKRFTWKLPDVCEAGGSGHLSASWQPQSGPSTPSPVAAQFTSEGATLSGLDLELLGGGYRMSLVKRRFATGMYLVSC
binding [4]: binds
binding (GST–PHear R95A (mouse) [5]): binds

B4: mCherry-tagged FCHo2 (protein, UniProt Q3UQN2 1-809)
chain: MVMAHFVENFWGEKNNGFDVLYHNMKHGQISTKELADFVRERATIEEAYSRSMTKLAKSASNYSQLGTFAPMWDVFKTSTEKLANCHLDLVRKLQELIKEVQKYGEEQVKSHKKTKEEVAGTLEAVQAIQNITQALQKSKENYTAKCVEQERLKKEGATQREIEKAAVKSKKATDTYKLYVEKYALTKADFEQKMTETAQKFQDIEETHLIHIKEIIGSLSNAVKEIHLQIGQVHEEFINNMANTTIESLIQKFAESKGTGKERPGLIEFEECDPASAVEGIKPRKRKTFALPGIIKKEKDAESVECPDADSLNIPDVDEEGFSIKPEANQNDTKENHFYSSSDSDSEDEEPKRYRIEIKPAHPNNLHHTMASLDELKVSIGNITLSPAVSRHSPVQMNRNSSNEELTKSKPSSLPTEKGTNDLLAWDPLFGSSLESSSAPLTSSSSARPTTPLSLGTLVPPPRPASRPKLASGKLSGINEIPRPFSPPVTSNTSPPPTAPLARAESSSSISSSASLSAANTPTVGVSRGPSPVSLGNQDTLPVAIALTESVNAYFKGADPTKCIVKITGDVTISFPSGIIKVFTSNPSPAVLCFRVKNISRLEQILPNSQLVFSDPSQCDSNTKDFWMNMQAVTIYLKKLSEQNPAASYYNVDVLKYQVSSNGIQSTPLNLATYWKCSASTTDLRVDYKYNPEAMVAPSVLSNIQVVVPVDGGVTNMQSLPPAIWNAEQMKAFWKLSGISEKSDSGGSGSLRAKFDLSEGPSKPTTLAVQFLSEGNTLSGVDIELVGTGYRLSLVKKRFATGRYLADC
binding [4]: binds
binding (GST–PHear R95A (mouse) [5]): binds

B5: Flag-tagged FCHo1 full-length (aa1–837) (protein, UniProt Q8K285 1-873)
chain: B3 chain
binding [4]: binds

B6: GST–PHear (NECAP 1 PHear domain, aa 1–133, fused to GST) (domain or fragment, UniProt Q9CR95 1-133)
chain: T1 sequence
binding [6]: binds

B7: GST–PHear–Ex (NECAP 1 aa 1–178 fused to GST) (domain or fragment, UniProt Q9CR95 1-178)
chain: MAAELEYESVLCVKPDVSVYRIPPRASNRGYRASDWKLDQPDWTGRLRITSKGKIAYIKLEDKVSGELFAQAPVEQYPGIAVETVTDSSRYFVIRIQDGTGRSAFIGIGFTDRGDAFDFNVSLQDHFKWVKQETEISKESQEMDNRPKLDLGFKEGQTIKLSIGNITAKKGGASKPRA
binding [6]: binds
